Here are results for one molecule from paper PMC10916352, “Safety Evaluation of a Prototypical Diazirine-Based Covalent Crosslinker and Molecular Adhesive” (International Journal of Toxicology, 2023).

In the data set the test system is Salmonella typhimurium TA98. Briefly: Bacterial reverse mutation test (Ames), strain TA98. The data set is classed as cell-based. To be noted: for Revertant Colonies (With S9), plates A, B, C / Revertant Colonies (Without S9), plates A, B, C: individual plates. As for the experimental part:
The reverse mutation test was performed to determine the potential of BondLynx and/or its metabolites to induce reverse mutations at the histidine locus of Salmonella typhimurium.[26],[27] The test employs strains of Salmonella typhimurium carrying mutations in the genes involved in histidine production, such that they are only able to grow in histidine supplemented culture media. Upon exposure to mutagenic materials, these mutations may be reversed, thereby restoring the ability to grow in histidine-free media. When grown in the presence of the test compound on media with a small amount of histidine, tester strains grow briefly to allow the opportunity for mutation, followed by proliferation of revertant colonies upon depletion of the provided histidine. Thus, the number of revertant colonies following incubation is indicative of the ability of the test compound to induce mutations.
Tests were performed on two strains of the bacteria (TA98 and TA100) in the absence and presence of an exogenous mammalian metabolic activation system (5% v/v S9). Positive controls and BondLynx were suspended in dimethyl sulfoxide (DMSO) for testing, and DMSO served as the vehicle control. Positive controls consisted of 2-nitrofluorene (10 μg/plate) for the TA98 strain without S9, methyl mesylate (650 μg/plate) for the TA100 strain without S9, and 2-aminoanthracene for both strains with S9 (1 μg/plate for TA98 and 5 μg/plate for TA100). Eight concentrations of BondLynx (1.7, 5.4, 17, 52, 164, 512, 1600 and 5000 μg/plate) were tested in triplicate. The vehicle control was tested in triplicate and the positive controls were tested singular.
Test solutions were prepared by pre-incubating .1 mL fresh bacterial culture (10^9 cells/mL), .1 mL of a BondLynx dilution or control solution, and .5 mL of S9 mix or .1 M phosphate buffer for 30 min before adding to 3 mL of molten (45 ± 2°C) top agar. After mixing in a vortex, agar solutions were poured onto selective agar plates. Upon solidification, the prepared plates were inverted and incubated at 37.0 ± 1.0°C for 48 ± 4 h. Following incubation, revertant colonies were counted with a Sorcerer Colony Counter. The condition of the bacterial background lawn was evaluated macroscopically and/or microscopically using a dissecting microscope when considered necessary.

“And” between values parts separate entries of the source, which are not always exact repeats. Equal values may be shown once. This continues a long series; more values of the same kind are listed elsewhere.

Regarding `FC(F)(F)C1(c2ccc(C(c3ccc(C4(C(F)(F)F)N=N4)cc3)(C(F)(F)F)C(F)(F)F)cc2)N=N1` [BondLynx, 2,2-bis-[4-[3-(trifluoromethyl)-3H-diazirin-3-yl]phenyl]hexafluoropropane], the “Revertant Colonies (With S9), Mean ± SD” value (TA98, with S9, 17 μg/plate) came out at 11 ± 5; the “Revertant Colonies (With S9), Mean ± SD” value (TA98, with S9, 52 μg/plate) is recorded as 14 ± 1; the “Revertant Colonies (With S9), Mean ± SD” value (TA98, with S9, 164 μg/plate) is recorded as 21 ± 4; the “Revertant Colonies (With S9), Mean ± SD” value (TA98, with S9, 512 μg/plate) is on record as 20 ± 6. Further, the “Revertant Colonies (With S9), plates A, B, C” value is 11 and 6 and 16 (TA98, with S9, 17 μg/plate); 15 and 14 (2×) (TA98, with S9, 52 μg/plate); 16 and 23 and 24 (TA98, with S9, 164 μg/plate); 15 and 19 and 26 (TA98, with S9, 512 μg/plate). For the same molecule, the “Revertant Colonies (Without S9), Mean ± SD” value reads like this: (TA98, without S9, 52 μg/plate) 10 ± 6; (TA98, without S9, 164 μg/plate) 9 ± 5; (TA98, without S9, 512 μg/plate) 13 ± 3. For the same molecule, the “Revertant Colonies (Without S9), plates A, B, C” value is 5 and 16 and 8 (TA98, without S9, 52 μg/plate); 8 and 14 and 5 (TA98, without S9, 164 μg/plate); 10 and 12 and 16 (TA98, without S9, 512 μg/plate).
